Data published in PubChem BioAssay AID1794845 (National Center for Advancing Translational Sciences (NCATS), 2023).
The campaign covered roughly 6,900 compounds. Fewer than 10 were called active. Calls follow the shape of the dose curve; as a rule, active = well fitted curve in the direction sought with a large enough effect; inconclusive = small, poorly fitted or top-dose-only effect, or another doubt; inactive = no such curve, though single readings can be large or run the other way. The list shows a part of the results.

Protein sequences, listed by entry. Tags and fused reporters are not part of them. Lines headed by an entry give the natural chain unless they say otherwise; changes in a name come on top.
UniProt C7C422: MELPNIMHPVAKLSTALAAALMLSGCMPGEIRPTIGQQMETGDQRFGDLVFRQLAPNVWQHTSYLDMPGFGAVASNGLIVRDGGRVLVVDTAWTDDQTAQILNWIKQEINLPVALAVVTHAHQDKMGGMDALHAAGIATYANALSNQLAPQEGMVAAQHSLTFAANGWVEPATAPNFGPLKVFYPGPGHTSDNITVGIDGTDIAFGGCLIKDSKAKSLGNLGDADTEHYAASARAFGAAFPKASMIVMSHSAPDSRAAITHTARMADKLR

biological target: Metallo-beta-lactamase type 2 (Klebsiella pneumoniae) (UniProt C7C422); test: qHTS to identify inhibitors of the New Delhi Metallo-beta-lactamase (NDM): primary screen against the NCATS Gemini Collection; details: NDM-1 enzyme, meropenem hydrolysis, absorbance 300 nm; at 38.4 µM (top of the series) unless noted; also: % of control where 0% means no effect
Method in brief: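 Meropenem hydrolysis (50 uM final) by 2 nM NDM-1 read as 300 nm absorbance after 30 min, following >30 min compound–enzyme preincubation in HEPES pH 7.0 with 1 uM ZnSO4 and 0.01% Tween20.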

Activity % (negative = inhibition), inactive:
Cc1ccc(N2C(=O)N[C@@H]3CCN(C(=O)CC4(CC(=O)O)CCCC4)[C@@H]3C2=O)cc1 0.234% [at 57.5 µM]
O=C1NCCCCCN(S(=O)(=O)c2cccs2)[C@H]2CCCC[C@@H]12 8.37%
CS(=O)(=O)N1CCC(OC2CCN(C(=O)Nc3ccccc3C(F)(F)F)CC2)CC1 0.281%
COc1cccc(CN2C[C@@H](CO)[C@H](NC(=O)C3CC3)C2)n1 4.02%
Cc1noc2c(-c3cnn(C)c3)cc(-c3cccnc3)nc12 -5.52% [at 57.5 µM]
CCc1noc([C@@H]2CC(F)(F)CN2C(=O)c2cocn2)n1 8%
O=C(CCn1ccn2nc3c(c2c1=O)CCCC3)N1CCSCC1 5.47%
O=C1C(N2CCN(S(=O)(=O)c3cc(F)ccc3F)CC2)CCN1Cc1cccnc1 (stereo not given) 13.2%
O=C(C1CCCCC1)N1CCC(OC2CCN(Cc3cccnc3)CC2)CC1 -2.3%
O=C(CCc1nnn2c1CN(C(=O)C1CCCC1)CC2)N1CCOCC1 -3.97%
CCn1cc(S(=O)(=O)NCC2Cn3cccc3C(=O)N2C)cn1 (stereo not given) -1.08%
CCC(C)N1Cc2cc(NC(=O)Cc3cccc(OC)c3)ccc2OCC1=O (stereo not given) 3.07%
Cc1noc(C)c1-c1cc2c(cc(C)n2C)c(-c2ccnn2C)n1 44.8% [at 57.5 µM]
Cc1nc(N2CCCCCC2)ncc1C(=O)O 0.287%
CCOC(=O)C1CCCN(C(=O)C2CCc3nnc(C4CC4)n32)C1 (stereo not given) -0.407%
O=C(NCc1ccncc1)C1CN(Cc2ccccn2)CC12CCOCC2 (stereo not given) 1.85%
CCCc1nc(C(=O)N2CC[C@H](CO)[C@H](O)C2)cs1 -0.0418%
Cc1cc(C(=O)NCC2(COc3ccc(S(C)(=O)=O)cc3)C[C@@H](O)[C@@H](O)C2)n(C)n1 (stereo not given in full) 16.8%
O=C(OCc1ccccc1)N1CCC2(CC1)C(=O)NN=C2C1CC1 3.02% [at 57.5 µM]
CCc1nc2c(c(NCCn3nc(C)c(CC)c3C)n1)CCNCC2 8.06%
CCN(Cc1noc(C2CCC2)n1)C(=O)c1cc(C(C)C)n2ncnc2n1 0.51%
OC[C@H]1C[C@@H](NCc2ccc(F)cc2)[C@H](O)[C@@H]1O 2.08% [at 77.1 µM]
Cc1ccccc1NC(=O)c1cc2n(n1)CC(c1ccc(Cl)cc1)OC2 (stereo not given) 1.14%
CCCC1CCN(C(=O)c2coc(COc3ccc4ccc(OC)cc4c3)n2)C1 (stereo not given) -7.62%
CCN1CCN(c2ccc(C(=O)N3CCCC(c4ccccc4)CC3)cn2)CC1 (stereo not given) 12.3%
Cn1ccc(Nc2cc3c(cn2)CN(CCc2ccccc2)CCN3)n1 29.4% [at 57.5 µM]
Cc1nn(C(=O)CCCC(=O)N2CCC(CCOc3ccc(F)cc3)C2)c2ccccc12 (stereo not given) 22.6%
Cc1cccc(Cn2nc(C3CCCNC3)n(-c3ccccc3)c2=O)c1 (stereo not given) -11.8%
O=C(O)[C@H]1C[C@H](C(=O)NCc2ccccn2)CN(Cc2ccccc2)C1 12.3%
C[C@]1(CO)[C@H]2Cc3sc(NC(=O)c4cccs4)nc3[C@@H](CC(=O)O)[C@]2(C)CC[C@H]1O 8.34%
CCc1cc(N2CCC(NCCc3cccc(Cl)c3)CC2)nc(C)n1 0.815%
C[S+](=O)([O-])N1CCC2(C1)N=C(c1ccccn1)C(=O)N2 (stereo not given) 0.441% [at 57.5 µM]
CCc1cc(C(=O)N2CCC(c3nnc(Cn4cncn4)n3C)CC2)no1 10.7%
COc1cc(CCC(=O)N2C[C@@H](C(N)=O)[C@H](c3nc(C)no3)C2)on1 10.5%
O=C1N2CCCC2CN1C1CCN(Cc2ccsc2)CC1 (stereo not given) 1.31% [at 57.5 µM]
CC(C)(C)C(=O)Nc1nc2c(s1)C[C@@H]1[C@](C)(CO)[C@H](O)CC[C@@]1(C)[C@@H]2CC(=O)NC1CC1 -3.97%
COc1cccc(CN2CCC(Oc3ccccc3-c3nc(-c4ccncc4)no3)C2)c1 (stereo not given) 4.74%
CN(Cc1ccc(-c2ccccc2)cc1)C(=O)Cc1ccccn1 -0.709% [at 57.5 µM]
COC(C(=O)Nc1ccnn1C1CCN(C(=O)CO)CC1)c1ccccc1 (stereo not given) -2.35%
Cc1cccc(-c2noc([C@@H]3Cc4nc[nH]c4CN3C(=O)c3ccc(-c4ccccc4)cc3)n2)c1 8.38%
Cc1ncc2c(c1CNC(=O)CC(C)c1ccccc1)CCNC2 (stereo not given) 13.6%
Cn1cc(CN2C[C@H](C(=O)NCc3ccccc3)C[C@H]2c2cccc(C(F)(F)F)c2)cn1 10.4%
c1c(-c2nc(C3CCOC3)no2)sc2c1CCCC2 (stereo not given) 23.4%
Cc1[nH]c(=O)[nH]c(=O)c1CC(=O)N[C@@H]1COCC[C@@H]1OCc1ccccc1 0.56%
CCn1cc(C(=O)N[C@@H]2CN(c3ncccn3)C[C@H]2CO)cn1 33.2%
COC[C@@H]1[C@H](C(=O)N2CCN(Cc3ccccc3)CC2)CCC(=O)N1C 25.1%
COc1cc(Cl)ccc1C(=O)N1CC[C@@](C)(O)[C@@H](O)C1 -1.7%
CCC(C)NC(=O)CN1CN(c2ccccc2)C2(CCN(C(=O)Nc3ccccc3C)CC2)C1=O (stereo not given) -1.56%
O=C(c1ccco1)N1CCC2(CCN(CCCn3cccn3)CC2)C(CO)C1 (stereo not given) 0.293%
COc1ccc(NC(=O)C[C@@H]2C[C@@H](C(C)C)[C@H](CC#N)C=C2C)cn1 2.37% [at 57.5 µM]
CC(C)CN1CCN(C(=O)c2ccc3c(c2)CC(=O)N3Cc2ccc(F)cc2)CC1 -3.45%
COCCCN1CC2(CCN(C(=O)c3cc(C(C)C)oc3C)CC2)CC1=O 22.9%
CC1(C)C(=O)Nc2ccc(S(=O)(=O)N3CCCC(c4nn[nH]n4)C3)cc21 (stereo not given) -0.875%
C=CCCC(CN1CCOCC1)Oc1ccc(Cn2ccnc2)cn1 (stereo not given) 0.493%
Cc1nnc2n1CCC(NC(=O)c1cccn1C)CC2 (stereo not given) 0.667%
CC(C)C(=O)N1CCC(NCCOc2ccccc2Cl)CC1 12.6%
CCCCc1cc(C[C@@H]2C[C@H](NC(=O)NCC)C2(C)C)no1 1.89% [at 57.5 µM]
CN(Cc1cccn1C)C(=O)c1ccccc1F -1.7% [at 57.5 µM]
Cc1nnc2n1CCC(NC(=O)c1cnccn1)CC2 (stereo not given) 5.38%
COc1ccc(C(=O)N2CCCCC(NC(=O)NCc3ccco3)C2)cc1 (stereo not given) -2.02%
Cc1c(C(=O)N[C@@H]2COCC[C@H]2Oc2ccc(C(N)=O)cc2)cnn1C -4.06%
CN(C)[C@@H]1CN(Cc2ccncc2F)CC[C@@H]1CNC(=O)C1CC1 1.29%
O=C(Cc1ccsc1)NCC1CCCCC(=O)N1 (stereo not given) -4.46%
CCN1CCN(C(=O)c2cc(-c3ccccc3OC)c3nncn3n2)CC1 9.34% [at 57.5 µM]
CN1CCN(C(=O)c2ccc3nnc(C4CCCC4)n3c2)CC1 7.62% [at 57.5 µM]
CO[C@@H]1CO[C@H]2[C@@H]1OC[C@@H]2NC(=S)Nc1ccccc1 -0.634% [at 77.1 µM]
COC[C@@H]1CN(S(=O)(=O)c2ccccc2C)C[C@H]1c1nc(C)no1 14.3%
CCCN(Cc1ccc(F)cc1)C(=O)c1cnc(-c2ccc(C)cc2)[nH]c1=O 21.5%
CN(C)[C@@H]1C[C@H](CO)[C@@H](O)[C@H]1O -0.471% [at 77.1 µM]
O=C(c1cc(-c2ccc(Cl)cc2)c2nncn2n1)N1CCOCC1 25.9% [at 57.5 µM]
O=C(CCc1ccccc1)N1CCNc2cnc(Nc3cccnc3)nc2C1 10.1% [at 57.5 µM]
O=C(O)c1ccnc(-c2ccnc(NCCN3CCCCC3CO)n2)c1 (stereo not given) 33.8%
CCC1(C(=O)NCCN2CCOCC2)CCCCC(=O)N1 (stereo not given) -6.78%
CCCn1ccnc1-c1c(-c2ccccc2)ncn1CCCC(=O)OC 8.89%
O=C(c1cn[nH]c1)N1CC2(CN(Cc3cccc(Cl)c3)CC2COc2ccccc2)C1 (stereo not given) -3.77% [at 57.5 µM]
COc1ccc(-c2nc3c(c(-c4ccccc4)n2)CN(C(=O)c2ccc(F)cc2)CC3)cc1 19.3%
O=C(NCCc1csc(-c2ncccn2)n1)C1NCCc2[nH]cnc21 (stereo not given) 0.698%
COc1ccc2c(c1)C(COCc1ccc(S(C)(=O)=O)cc1)CC(C)(C)O2 (stereo not given) 2.55%
COCc1nc(C2CC(NC(=O)c3nn(C)c4c3CCCC4)C2)cc(=O)[nH]1 (stereo not given) 7.05%
COc1ccc(CC(=O)N2CCCN(c3cc(-c4ccccc4)[nH]n3)CC2)cc1 8.85%
CCCN(C)C(=O)c1c(-c2ccc(F)cc2)noc1[C@H](C)O -10.9% [at 57.5 µM]
O=C(Nc1n[nH]c(Cc2ccccc2)n1)N1CCN(C(=O)c2ccco2)CC1 -0.879%
CC(=O)N1Cc2ccccc2CC2(CCCN2Cc2ccccn2)C1 (stereo not given) 13.2%
O=S(=O)(c1ccc(F)cc1)N1CCC(Oc2ccc(-c3noc(C4CC4)n3)cc2)C1 (stereo not given) -2.7%
Cc1ncoc1C(=O)N1CCC(N2CCCC(C(=O)N3CCCC3)C2)CC1 (stereo not given) 24.7%

Looked up by structure from above (5):
Activity % (negative = inhibition), inactive:
Cc1nc(N2CCCCCC2)ncc1C(=O)O 0.287%
COC[C@@H]1[C@H](C(=O)N2CCN(Cc3ccccc3)CC2)CCC(=O)N1C 25.1%
CC(C)(C)C(=O)Nc1nc2c(s1)C[C@@H]1[C@](C)(CO)[C@H](O)CC[C@@]1(C)[C@@H]2CC(=O)NC1CC1 -3.97%
O=C(OCc1ccccc1)N1CCC2(CC1)C(=O)NN=C2C1CC1 3.02% [at 57.5 µM]
CN(Cc1ccc(-c2ccccc2)cc1)C(=O)Cc1ccccn1 -0.709% [at 57.5 µM]

Among those listed so far, two contain two or more sulfur atoms.
Activity % (negative = inhibition), inactive:
O=C1NCCCCCN(S(=O)(=O)c2cccs2)[C@H]2CCCC[C@@H]12 8.37%
C[C@]1(CO)[C@H]2Cc3sc(NC(=O)c4cccs4)nc3[C@@H](CC(=O)O)[C@]2(C)CC[C@H]1O 8.34%
